Results taken from US11371013B2, “Culture medium composition and method of culturing cell or tissue using thereof” (Nissan Chemical Industries, Ltd., priority 2012, dated 2022).

Tested on: HeLa cell sphere
Assay: Cell suspension test with HeLa cell spheres
Design: species or system human
Conditions: 37°C, 1 hr

Substance: collagen
- HeLa cell suspension/sedimentation (0.01% (w/v)): sedimentation
- HeLa cell suspension/sedimentation (0.05% (w/v)): suspension
- HeLa cell suspension/sedimentation (0.1% (w/v)): suspension
- HeLa cell suspension/sedimentation (0.2% (w/v)): suspension
